Results deposited as PubChem BioAssay AID504764 (Drosophila RNAi Screening Center, 2011)

- Test: 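Genome-wide screen for regulators of Notch-driven gene expression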 (primary screen)
- Cell system: Drosophila Kc167 cells
- Reagents: long dsRNA against Drosophila genes
- Time to read-out: about 5 days (4 days dsRNA, then 24 h after transfection)
- Conditions: transfection of constitutively active membrane-tethered Notch lacking the extracellular domain, read 24 h later
- Measurement: 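Firefly luciferase from an E(spl)m3 reporter with active Notch, plus control-promoter and uninduced reporter wells for normalisation; unnormalised counts, duplicate wells a and b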
- Reading the numbers: induced reporter light, run 1, well a and induced reporter light, run 1, well b: higher = more light from the Notch target reporter with active Notch; control promoter light, run 1, well a and control promoter light, run 1, well b: higher = more light from the viral control promoter (cell number, transfection, viability); uninduced reporter light, run 1, well a: higher = more light from the Notch target reporter without active Notch
- Hit rule: 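Hit if the duplicate-averaged log2 ratio of induced to control-promoter light gives a plate-wise z beyond ±2, or induced to uninduced beyond ±1.8; weak-control or discordant-duplicate wells dropped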
- Calls: active = modifier hit (raised or lowered Notch signal); inactive = not a hit
The deposit covers about 22,000 reagents; this is an unselected part of those with a known target gene and a result. Over the whole deposit, 403 (1.9%) are marked active. 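Unnormalised raw counts per well; ratio z-scores behind the hit calls and whether each hit raises or lowers signal are not deposited.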 A plus sign joins genes that one reagent is predicted to hit. Not stated in the record: the amount of reagent.

Gbs-70E [DRSC11055] showed induced reporter light, run 1, well a = 1.54e5; induced reporter light, run 1, well b = 1.91e5; control promoter light, run 1, well a = 2.34e5; control promoter light, run 1, well b = 1.40e5; uninduced reporter light, run 1, well a = 7665; inactive.
After knock-down of CG34234 + Dh44-R2 [DRSC07278], the record shows induced reporter light, run 1, well a = 79055; induced reporter light, run 1, well b = 90705; control promoter light, run 1, well a = 77555; control promoter light, run 1, well b = 90400; uninduced reporter light, run 1, well a = 7685; inactive.
Depletion of CG13501 [DRSC04146] came out at: induced reporter light, run 1, well a = 46850; induced reporter light, run 1, well b = 38815; control promoter light, run 1, well a = 34640; control promoter light, run 1, well b = 39350; uninduced reporter light, run 1, well a = 1565; inactive.
Silencing of CG13869 + CG11099 [DRSC06428] gave: induced reporter light, run 1, well a = 32895; induced reporter light, run 1, well b = 34995; control promoter light, run 1, well a = 41295; control promoter light, run 1, well b = 36370; uninduced reporter light, run 1, well a = 4070; inactive.
Knock-down of Pkcdelta [DRSC19356] gave: induced reporter light, run 1, well a = 1.01e5; induced reporter light, run 1, well b = 91855; control promoter light, run 1, well a = 1.23e5; control promoter light, run 1, well b = 98015; uninduced reporter light, run 1, well a = 6030; inactive.
After knock-down of Pkcdelta [DRSC19399] the results were induced reporter light, run 1, well a = 47495; induced reporter light, run 1, well b = 47095; control promoter light, run 1, well a = 32425; control promoter light, run 1, well b = 41125; uninduced reporter light, run 1, well a = 3220; active.
Plzf [DRSC02994] gave induced reporter light, run 1, well a = 1.67e5; induced reporter light, run 1, well b = 2.28e5; control promoter light, run 1, well a = 1.42e5; control promoter light, run 1, well b = 1.40e5; uninduced reporter light, run 1, well a = 15125; inactive.
Against CG17715 [DRSC11950], the values are induced reporter light, run 1, well a = 1.16e5; induced reporter light, run 1, well b = 1.22e5; control promoter light, run 1, well a = 1.30e5; control promoter light, run 1, well b = 1.10e5; uninduced reporter light, run 1, well a = 10555; inactive.
Silencing of Lint-O [DRSC18468] came out at: induced reporter light, run 1, well a = 83470; induced reporter light, run 1, well b = 77855; control promoter light, run 1, well a = 1.46e5; control promoter light, run 1, well b = 1.20e5; uninduced reporter light, run 1, well a = 7835; inactive.
Knock-down of Osbp [DRSC16779] resulted in: induced reporter light, run 1, well a = 1.44e5; induced reporter light, run 1, well b = 1.51e5; control promoter light, run 1, well a = 1.60e5; control promoter light, run 1, well b = 1.67e5; uninduced reporter light, run 1, well a = 16240; inactive.
Knock-down of E(spl)mgamma-HLH [DRSC16699] came out at: induced reporter light, run 1, well a = 1.87e5; induced reporter light, run 1, well b = 1.65e5; control promoter light, run 1, well a = 2.16e5; control promoter light, run 1, well b = 2.04e5; uninduced reporter light, run 1, well a = 15920; inactive.
With knock-down of PAPLA1 [DRSC03095] the results were induced reporter light, run 1, well a = 62655; induced reporter light, run 1, well b = 82790; control promoter light, run 1, well a = 44475; control promoter light, run 1, well b = 50795; uninduced reporter light, run 1, well a = 5350; active.
For PAPLA1 [DRSC03096], the entry reads induced reporter light, run 1, well a = 1.52e5; induced reporter light, run 1, well b = 1.68e5; control promoter light, run 1, well a = 1.13e5; control promoter light, run 1, well b = 1.42e5; uninduced reporter light, run 1, well a = 19310; inactive.
Against Scp1 [DRSC20799] the deposit lists induced reporter light, run 1, well a = 1.90e5; induced reporter light, run 1, well b = 2.11e5; control promoter light, run 1, well a = 3.39e5; control promoter light, run 1, well b = 2.89e5; uninduced reporter light, run 1, well a = 17280; inactive.
With knock-down of Scp1 [DRSC20803] the results were induced reporter light, run 1, well a = 2.92e5; induced reporter light, run 1, well b = 2.57e5; control promoter light, run 1, well a = 3.31e5; control promoter light, run 1, well b = 3.99e5; uninduced reporter light, run 1, well a = 16955; inactive.
After knock-down of Scp1 [DRSC20806], the screen gave induced reporter light, run 1, well a = 99810; induced reporter light, run 1, well b = 90885; control promoter light, run 1, well a = 90605; control promoter light, run 1, well b = 1.25e5; uninduced reporter light, run 1, well a = 12565; inactive.
aru [DRSC00802] showed induced reporter light, run 1, well a = 1.34e5; induced reporter light, run 1, well b = 1.04e5; control promoter light, run 1, well a = 99625; control promoter light, run 1, well b = 52795; uninduced reporter light, run 1, well a = 9905; inactive.
mdy [DRSC01559] gave induced reporter light, run 1, well a = 70835; induced reporter light, run 1, well b = 60020; control promoter light, run 1, well a = 77220; control promoter light, run 1, well b = 55790; uninduced reporter light, run 1, well a = 5300; inactive.
For mdy [DRSC02250], the entry reads induced reporter light, run 1, well a = 2.26e5; induced reporter light, run 1, well b = 2.16e5; control promoter light, run 1, well a = 1.77e5; control promoter light, run 1, well b = 1.49e5; uninduced reporter light, run 1, well a = 13950; active.
